In doi:10.1101/2022.04.06.487297 (bioRxiv, 2022):
Results are given in words; binding and its absence hold for the method and conditions named. Binding seen in cells or lysates may run through a third protein. Some entries that bind do so weakly or less than the wild type.

Amino acid sequences for entries named in this document (tags omitted).
UniProt Q60598: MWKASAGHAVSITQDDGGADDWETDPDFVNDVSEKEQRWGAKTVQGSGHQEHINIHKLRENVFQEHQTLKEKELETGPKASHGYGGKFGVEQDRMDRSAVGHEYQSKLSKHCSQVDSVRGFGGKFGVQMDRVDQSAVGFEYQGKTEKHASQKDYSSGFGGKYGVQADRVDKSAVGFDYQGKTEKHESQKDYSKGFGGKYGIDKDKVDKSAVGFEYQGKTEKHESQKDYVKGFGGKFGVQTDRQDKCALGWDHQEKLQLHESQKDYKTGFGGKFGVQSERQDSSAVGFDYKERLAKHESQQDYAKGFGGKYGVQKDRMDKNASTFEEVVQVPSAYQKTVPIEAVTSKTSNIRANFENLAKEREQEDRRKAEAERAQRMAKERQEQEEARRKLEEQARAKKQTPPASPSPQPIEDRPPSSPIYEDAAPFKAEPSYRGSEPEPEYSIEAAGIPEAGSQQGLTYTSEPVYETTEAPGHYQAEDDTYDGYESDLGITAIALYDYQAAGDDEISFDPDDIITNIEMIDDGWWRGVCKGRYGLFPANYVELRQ
UniProt Q14289: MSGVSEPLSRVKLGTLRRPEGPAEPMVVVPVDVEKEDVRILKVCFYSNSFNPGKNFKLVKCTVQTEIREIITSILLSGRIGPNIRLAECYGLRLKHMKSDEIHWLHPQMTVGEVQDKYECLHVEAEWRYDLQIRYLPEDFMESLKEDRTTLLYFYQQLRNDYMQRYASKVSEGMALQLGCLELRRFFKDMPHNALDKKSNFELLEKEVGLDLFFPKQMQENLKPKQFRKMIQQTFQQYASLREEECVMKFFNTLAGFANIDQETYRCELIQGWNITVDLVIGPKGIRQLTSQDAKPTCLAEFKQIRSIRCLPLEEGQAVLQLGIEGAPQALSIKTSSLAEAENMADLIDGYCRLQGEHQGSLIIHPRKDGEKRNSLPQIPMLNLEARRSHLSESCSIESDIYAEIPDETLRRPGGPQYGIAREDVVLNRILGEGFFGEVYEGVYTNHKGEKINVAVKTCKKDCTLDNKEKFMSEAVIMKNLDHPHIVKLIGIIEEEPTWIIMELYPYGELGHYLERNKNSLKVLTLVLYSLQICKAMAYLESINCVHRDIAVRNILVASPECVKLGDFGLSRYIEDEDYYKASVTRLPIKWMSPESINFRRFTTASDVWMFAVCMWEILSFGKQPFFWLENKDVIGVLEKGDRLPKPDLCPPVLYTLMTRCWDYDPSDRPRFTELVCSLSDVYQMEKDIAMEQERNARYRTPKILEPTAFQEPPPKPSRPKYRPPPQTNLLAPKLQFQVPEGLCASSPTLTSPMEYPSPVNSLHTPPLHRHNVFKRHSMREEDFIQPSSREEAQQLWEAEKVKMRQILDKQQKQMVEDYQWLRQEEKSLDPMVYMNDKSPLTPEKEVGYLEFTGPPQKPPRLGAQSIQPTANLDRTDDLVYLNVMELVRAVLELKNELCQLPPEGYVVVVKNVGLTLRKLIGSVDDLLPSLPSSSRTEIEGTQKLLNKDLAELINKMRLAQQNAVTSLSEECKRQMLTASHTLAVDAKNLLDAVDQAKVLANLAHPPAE

Target: cortactin-TagRFP (UniProt Q60598)
Assay: FRET or BRET

- binding: binds
Substance: Pyk2 (proline-rich tyrosine kinase 2), pY402 form (from UniProt Q14289 1-1009)
